Laboratory results from the supplement of paper PMC11098740.
This is one part of the list. Repeats are few or missing, and single values can be far off.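 Pooled together, 41 HAP1 clones carry intronic fluorescent tags on 61 cancer-associated proteins, and each clone is recognized by its imaging pattern. Measurements are benchmarked against DMSO-treated control wells. dBET6, a BRD4 degrader, served as the positive control.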

By UniProt entry, the sequences of proteins in these tests, tags left out.
UniProt O14980, whole entry: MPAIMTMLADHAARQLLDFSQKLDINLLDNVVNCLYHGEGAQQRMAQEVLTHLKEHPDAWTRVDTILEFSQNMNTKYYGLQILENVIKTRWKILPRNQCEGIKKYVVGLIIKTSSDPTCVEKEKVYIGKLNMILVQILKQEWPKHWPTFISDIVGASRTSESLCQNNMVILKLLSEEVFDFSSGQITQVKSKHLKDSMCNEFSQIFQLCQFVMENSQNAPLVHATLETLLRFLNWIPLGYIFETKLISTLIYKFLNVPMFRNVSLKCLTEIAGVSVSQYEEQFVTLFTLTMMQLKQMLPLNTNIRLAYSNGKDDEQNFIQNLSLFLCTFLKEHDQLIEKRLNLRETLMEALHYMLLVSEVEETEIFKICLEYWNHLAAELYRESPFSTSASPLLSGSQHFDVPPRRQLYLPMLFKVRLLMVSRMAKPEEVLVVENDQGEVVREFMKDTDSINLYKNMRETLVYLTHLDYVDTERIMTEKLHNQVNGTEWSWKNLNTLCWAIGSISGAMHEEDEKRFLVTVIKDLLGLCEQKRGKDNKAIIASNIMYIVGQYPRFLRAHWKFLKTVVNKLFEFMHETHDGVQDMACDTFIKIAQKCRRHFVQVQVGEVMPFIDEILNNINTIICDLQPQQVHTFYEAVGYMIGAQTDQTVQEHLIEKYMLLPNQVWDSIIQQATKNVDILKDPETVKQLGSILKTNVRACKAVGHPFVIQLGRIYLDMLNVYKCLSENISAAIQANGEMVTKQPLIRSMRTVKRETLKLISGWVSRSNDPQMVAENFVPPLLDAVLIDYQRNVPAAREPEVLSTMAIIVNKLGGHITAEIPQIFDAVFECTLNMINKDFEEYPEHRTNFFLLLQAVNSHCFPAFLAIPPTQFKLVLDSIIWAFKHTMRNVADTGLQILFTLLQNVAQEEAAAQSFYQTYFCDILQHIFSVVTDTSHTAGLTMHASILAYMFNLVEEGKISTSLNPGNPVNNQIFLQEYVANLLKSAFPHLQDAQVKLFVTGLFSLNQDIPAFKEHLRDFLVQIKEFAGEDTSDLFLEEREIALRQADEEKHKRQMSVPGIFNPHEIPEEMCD

Experiments:
[1] = biological target: XPO1 (intron 15 mScarlet tag, HAP1) (UniProt O14980); test: XPO1 fluorescence intensity change vs DMSO (log2 fold change); higher = more XPO1 protein; details: 6 h
[2] = biological target: BRD4 (intron 10 mScarlet tag, HAP1) (UniProt O60885); test: BRD4 median nuclear fluorescence intensity change vs DMSO (log2 fold change); higher = more BRD4 protein; details: 6 h

Row | Structure (SMILES) | XPO1 fluorescence intensity change (log2) [1] | BRD4 median nuclear fluorescence intensity change (log2) [2]
1 | O=C(Cc1ccc(-n2cccn2)cc1)Nc1ccc2oc(=O)[nH]c2c1 (10 µM) | 0.116 | 0.156
2 | O=C(/C=C/c1cccc(Cl)c1)c1ccc(O)c(CCCl)c1 (10 µM) | -0.317 | -0.131
3 | O=C(/C=C/c1ccc(F)c(Br)c1)c1ccc(O)c(CCCl)c1 (10 µM) | -0.409 | -0.0693
4 | COc1ccc(C)cc1N1CC(C(=O)Nc2nc3ccccc3[nH]2)CC1=O (centres undefined) (1 µM) | -0.00155 | 0.0768
5 | COc1cccc2c1N(CC(=O)Nc1ccc(S(C)(=O)=O)cc1)CCC2 (10 µM) | -0.0108 | 0.0261
6 | O=C(COC(=O)c1ccc(-c2ccc(O)cc2)cc1)NCc1ccc(F)cc1 (1 µM) | -0.0819 | -0.0787
7 | CS(=O)(=O)NCCc1ccc(-c2csc(COc3ccccc3)n2)s1 (10 µM) | 0.541 | 0.0782
8 | CCOc1ccccc1C(=O)NCCCC(=O)Nc1ccc(F)c(F)c1 (10 µM) | -0.276 | -0.0467
9 | COc1ccccc1CC(=O)N1CCCN(C)c2nc3ccccc3nc21 (10 µM) | 0.0941 | 0.197
10 | CC(c1nc2ccccc2c(=O)[nH]1)N(C)Cc1nc2ccccc2c(=O)[nH]1 (centres undefined) (10 µM) | 0.0131 | 0.0596
11 | Cc1cc(C(=O)N(C)Cc2cnn(C)c2)c(C)n1Cc1ccccc1 (10 µM) | 0.109 | 0.0568
12 | Cc1ccc(Cc2cnc(NC(=O)CCc3ccco3)s2)cc1Cl (1 µM) | 0.37 | 0.0894
13 | CCCn1nc(C(=O)Nc2nc(-c3ccccn3)cs2)ccc1=O (10 µM) | -0.131 | 0.0229
14 | COc1ccccc1-c1cc(C(=O)NCCc2ccccc2)no1 (10 µM) | 0.056 | 0.0386
15 | CCN(CC)Cc1ccc(O)c2ncccc12 (1 µM) | -0.0237 | -0.0553
16 | Cn1cc(-c2nc(N[C@@H]3CCCC[C@@H]3N)c(F)c3c2C(=O)NC3)cn1 (10 µM) | 0.107 | 0.0877
17 | Cc1cccc(CSCC(=O)Nc2nc(-c3ccccn3)cs2)c1 (10 µM) | -0.0408 | -0.0261
18 | CC(C(=O)N1CCc2[nH]c3ccc(Br)cc3c2C1)n1cnc2ccccc21 (centres undefined) (1 µM) | 0.00884 | 0.0257
19 | COc1ccc2cc(C(C)C(=O)NCc3ccc(F)cc3)ccc2c1 (centres undefined) (10 µM) | -0.0867 | -0.0709

Row | Structure (SMILES) | XPO1 fluorescence intensity change (log2) [1] | BRD4 median nuclear fluorescence intensity change (log2) [2]
20 | COc1cccc(/C=C/C(=O)c2ccc(O)c(CCCl)c2)c1 (10 µM) | -0.27 | -0.0968
21 | O=C(Nc1ccc(N2CCCCC2)c2ccncc12)c1ccccc1 (10 µM) | 0.00969 | 0.0274
22 | NNC(=O)COc1ccc(C23CC4CC(CC(C4)C2)C3)cc1 (10 µM) | 0.0568 | -0.0354
23 | CCOc1ncccc1CNC(=O)c1cc2c(nc3sccn32)s1 (10 µM) | -0.113 | -0.00275
24 | Cc1oc(NC(=O)COC(=O)c2ccc(SC(F)F)cc2)c(C#N)c1C (10 µM) | -0.0348 | -0.0337
25 | O=C(NC1CCN(Cc2ccccc2)C1)c1ccc(OC(F)(F)F)cc1 (centres undefined) (10 µM) | 0.0343 | 0.144
26 | COc1cc2c(=O)[nH]c(-c3ccc(O)cc3)nc2cc1OC(F)F (10 µM) | 0.0487 | 0.056
27 | Cc1noc(C)c1COc1cc2ccccc2cc1C(=O)Nc1ccn(C)n1 (10 µM) | 0.00732 | 0.122
28 | N#CC(C#N)=C1C=CC=CN1/C(=C/c1ccc(Cl)cc1)C(=O)c1ccc(Cl)cc1 (0.1 µM) | -0.187 | 0.136
29 | CC1(C)CCC(CN2CCN(c3ccc(C(=O)NS(=O)(=O)c4ccc(NCC5CCOCC5)c([N+](=O)[O-])c4)c(Oc4cnc5[nH]ccc5c4)c3)CC2)=C(c2ccc(Cl)cc2)C1 (10 µM) | -0.292 | 0.0158
30 | Cc1cccc(C)c1OCC(=O)Nc1ccc(C2(C)NC(=O)NC2=O)cc1 (centres undefined) (10 µM) | 0.144 | 0.175
31 | N#CC(C#N)=C1C=CC=CN1/C(=C/c1ccc(F)cc1)C(=O)c1cccs1 (0.1 µM) | 0.0285 | 0.0322
32 | Cn1nc(C(=O)Nc2cccc(C3SCCCS3)c2)c2ccccc2c1=O (0.1 µM) | -0.0742 | 0.00995
33 | CCOC(=O)C1=C(CCl)NC(=O)NC1c1ccco1 (centres undefined) (10 µM) | 0.00325 | 0.0345
34 | CCNc1nc(-c2cccnc2)nc2sc(C)c(C)c12 (10 µM) | 0.177 | 0.0466
35 | CCc1ccccc1N1CCN(C(=O)c2cc(OC)c(OC)c(OC)c2)CC1 (1 µM) | -0.0357 | 0.0261
36 | COC(=O)C1=C(CCl)NC(=O)NC1c1ccccc1 (centres undefined) (10 µM) | 0.0156 | 0.113
37 | CC1CN(c2ccc(C(=O)Nc3cc(Cl)cc(Cl)c3)cn2)CC(C)O1 (centres undefined) (10 µM) | 0.11 | 0.244

Retrieved one by one from the list above (two):
Row | Structure (SMILES) | XPO1 fluorescence intensity change (log2) [1] | BRD4 median nuclear fluorescence intensity change (log2) [2]
30 | Cc1cccc(C)c1OCC(=O)Nc1ccc(C2(C)NC(=O)NC2=O)cc1 (centres undefined) (10 µM) | 0.144 | 0.175
36 | COC(=O)C1=C(CCl)NC(=O)NC1c1ccccc1 (centres undefined) (10 µM) | 0.0156 | 0.113
